This is an account of results in article PMC8080847.

The chains behind the UniProt entries cited, without tags or fusion partners. Residues count along the entry.
UniProt P16070, residues 21-742: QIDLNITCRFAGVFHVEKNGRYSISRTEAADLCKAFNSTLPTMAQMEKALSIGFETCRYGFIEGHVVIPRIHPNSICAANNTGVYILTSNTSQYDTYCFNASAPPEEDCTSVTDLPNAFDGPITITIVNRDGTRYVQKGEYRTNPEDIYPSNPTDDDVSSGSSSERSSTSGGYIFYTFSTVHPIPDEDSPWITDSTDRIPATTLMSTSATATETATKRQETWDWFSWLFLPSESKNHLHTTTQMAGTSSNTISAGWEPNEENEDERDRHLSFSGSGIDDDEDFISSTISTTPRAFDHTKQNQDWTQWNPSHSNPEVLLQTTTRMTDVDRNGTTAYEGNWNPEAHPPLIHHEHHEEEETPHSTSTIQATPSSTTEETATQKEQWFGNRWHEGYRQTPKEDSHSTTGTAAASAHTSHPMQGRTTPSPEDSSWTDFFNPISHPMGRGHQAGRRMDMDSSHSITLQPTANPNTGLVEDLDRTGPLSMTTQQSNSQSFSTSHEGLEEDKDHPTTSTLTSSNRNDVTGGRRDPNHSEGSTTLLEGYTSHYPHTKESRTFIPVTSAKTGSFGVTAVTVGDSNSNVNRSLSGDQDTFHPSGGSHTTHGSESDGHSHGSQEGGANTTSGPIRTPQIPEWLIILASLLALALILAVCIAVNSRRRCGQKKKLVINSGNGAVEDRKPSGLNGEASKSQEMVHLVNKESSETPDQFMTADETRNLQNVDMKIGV

The target in experiment [1] is EGFR on human cancer cell lines (human (endogenous in A431, A549, NCI-H508, Caco-2, Skbr3, Skov3)) (UniProt P00533). In words: single-molecule diffusional mobility shift assay (smDIMSA); living Skbr3 cells; EGFR as bait, each receptor as prey with an antibody targeting the prey.
The target is the same in experiment [2]. Nature of the experiment: single-molecule diffusional mobility shift assay (smDIMSA); living Skov3 cells; EGFR as bait, each receptor as prey with an antibody targeting the prey.

Results are given in words; binding and its absence hold for the method and conditions named. Some results given as binding are weak or reduced against the parent protein; the word gives no strength.

Turning to “CD44 on human cancer cell lines (from UniProt P16070 21-742) (receptor)”, the binding entry in experiment [1] and in experiment [2] was “binds” each time.
